For the assay, the target named is DksA1 with a 3XFLAG tag at its C-terminus (DksA1::3xFLAG) (Pseudomonas aeruginosa PAO1) (UniProt Q9KKG5). In words: co-IP; lysate of PAO1 dksA1::3xFLAG grown 6 to 8 h in LB with DMSO, 150 μM Dkstatin-1 or 150 μM Dkstatin-2; M2 anti-FLAG magnetic beads overnight at 4 °C; lysis buffer 50 mM Tris-HCl pH 7.5, 75 mM NaCl, 10 mM MgCl2, 10% glycerol, 1 mM EDTA, 0.01% Triton X-100; one wash; blot with anti-RpoB.

Sequences of proteins named here, by UniProt entry; tags and fusion partners are left off.
UniProt Q51561: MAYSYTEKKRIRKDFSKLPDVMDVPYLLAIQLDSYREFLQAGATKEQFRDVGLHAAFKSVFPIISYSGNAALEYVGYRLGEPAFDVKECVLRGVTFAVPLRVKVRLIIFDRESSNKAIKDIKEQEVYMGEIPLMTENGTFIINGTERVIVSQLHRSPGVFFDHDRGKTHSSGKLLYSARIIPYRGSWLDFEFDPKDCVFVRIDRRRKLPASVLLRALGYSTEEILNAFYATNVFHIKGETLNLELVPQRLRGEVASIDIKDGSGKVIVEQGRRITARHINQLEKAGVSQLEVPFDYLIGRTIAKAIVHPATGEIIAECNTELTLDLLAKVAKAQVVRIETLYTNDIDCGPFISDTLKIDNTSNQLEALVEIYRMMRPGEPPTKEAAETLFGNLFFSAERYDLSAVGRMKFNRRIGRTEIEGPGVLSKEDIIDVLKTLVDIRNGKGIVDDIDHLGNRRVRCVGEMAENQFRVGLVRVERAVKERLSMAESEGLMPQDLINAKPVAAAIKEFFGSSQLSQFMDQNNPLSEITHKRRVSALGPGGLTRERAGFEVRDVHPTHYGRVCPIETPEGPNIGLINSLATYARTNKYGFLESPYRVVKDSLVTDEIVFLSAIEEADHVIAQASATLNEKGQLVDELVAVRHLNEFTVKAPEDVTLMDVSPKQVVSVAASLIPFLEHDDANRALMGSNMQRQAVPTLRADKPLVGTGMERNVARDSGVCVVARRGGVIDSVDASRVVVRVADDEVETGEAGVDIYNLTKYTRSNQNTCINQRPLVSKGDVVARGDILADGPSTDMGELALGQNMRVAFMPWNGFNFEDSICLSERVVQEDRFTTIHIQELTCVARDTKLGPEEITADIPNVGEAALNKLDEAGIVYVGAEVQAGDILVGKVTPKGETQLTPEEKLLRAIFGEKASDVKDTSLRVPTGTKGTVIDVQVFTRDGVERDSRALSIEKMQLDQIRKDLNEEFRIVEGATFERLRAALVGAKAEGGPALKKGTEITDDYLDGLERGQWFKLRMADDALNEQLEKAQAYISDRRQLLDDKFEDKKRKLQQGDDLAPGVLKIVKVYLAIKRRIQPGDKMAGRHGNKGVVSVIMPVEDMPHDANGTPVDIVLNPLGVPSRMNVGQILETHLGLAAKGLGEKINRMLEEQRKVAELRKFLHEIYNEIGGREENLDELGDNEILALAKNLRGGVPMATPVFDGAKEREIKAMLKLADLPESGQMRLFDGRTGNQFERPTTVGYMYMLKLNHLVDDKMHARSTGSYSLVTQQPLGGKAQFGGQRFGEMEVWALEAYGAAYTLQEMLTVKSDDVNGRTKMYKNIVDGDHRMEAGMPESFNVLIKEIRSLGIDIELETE

Results are given in words; binding and its absence hold for the method and conditions named. Binding seen in cells or lysates may run through a third protein. Binding calls can cover weak binding; strength is not graded here.

As for “RNA polymerase β subunit (RpoB) (from UniProt Q51561 1-1357)”, the binding entry is “binds”.
